Results as given in patent US20080293699A1, “Inhibitors of thapsigargin-induced cell death” (priority 2007, published 2008).
At least one compound was matched to its structure with a doubt left.

Key:
[1] = system: CSM14.1 cells; experiment: Pathway selectivity: cell death induced by VP16, TNF plus cycloheximide or staurosporine in CSM14.1 cells; type: cell-based, rat; conditions: CSM 14.1, compound ≦25 μM
Description: The selectivity of compounds with respect to suppression of cell death induced by ER stress was determined by treating undifferentiated CSM14.1 cells with a variety of agents that induce apoptosis via the ER stress pathway (thapsigargin, tunicamycin), the mitochondrial pathway (VP16) or the death receptor pathway (TNF+cycloheximide [CHX]). Of the 26 hit compounds tested, 19 reduced cell death induced by thapsigargin and tunicamycin but not VP16 or TNF/CHX.
For the experiments shown in FIG. 18, undifferentiated CSM 14.1 cells were plated at 3,000 cells per well in 96-well plates (for the ATP assay) or at 1×10^4 cells per well in 24-well plates (for flow cytometry). The next day, cells were treated with DMSO (0.5%) or hit compounds 25 μM of a compound with 0.5% DMSO final concentration) for two hours, followed by treatment with various cell death-inducing reagents, including 15 μM Thapsigargin (TG) for 24 hrs, 10 μg/mL tunicamycin (TU) for 72 hrs, 2.5 μM staurosporine (STS) for 24 hrs, 50 μM VP16 for 48 hrs, or 30 ng/mL TNF plus 10 μg/mL cyclohexamide (CHX) for 24 hrs. Cellular ATP content was measured for staurosporine samples and TNF/CHX samples, normalizing data relative to cells treated with DMSO alone (the control) and presenting as a percentage of control. For measuring cell death resulting from treatment with tunicamycin and VP16, flow cytometry was used. All assays were performed in triplicate (mean ±SD).

[2] = system: Jurkat human T-leukemia; experiment: Thapsigargin-induced death of Jurkat cells, ATP content assay; type: cell-based; conditions: thapsigargin 15 μM, compound ≦25 μM
Description: To explore whether compounds broadly protect cells of various lineages versus only neuronal cells, we tested all 26 hits for ability to rescue CSM14.1 (neuronal), and Jurkat (lymphoid), cell lines from cell death induced by TG. […] CSM 14.1 (FIG. 15, left) and Jurkat cells (FIG. 15, right) were cultured overnight at 3,000 cells per well or at 30,000 cells per well, respectively, in 96-well plates. Wells received DMSO alone or 25 μM compounds in DMSO, followed by treatment with or without TG (15 μM). After culturing for 24 hrs, ATP content was determined, expressing data as a percentage control relative to cells treated only with DMSO (mean ±SD; n=3). The data reveal that one of the compounds protects CSM14.1 but not Jurkat cells from TG-induced cell death (as measured by the ATPlite assay). […]
In addition to CSM14.1 cells, when tested at 25 μM, Compound 5962123 protected by >50% against thapsigargin-induced death of several tumor cell lines (HeLa human cervical cancer, SW1 melanoma cell, PPC1, human prostate cancer), mouse neural stem cell C17.2 (both differentiated [neuronal phenotype] and non-differentiated [stem cell phenotype]) as determined by ATP content assay, and primary rat cortical neurons as determined by microscopy assay measuring the percentage of NeuN-immunopositive cells with either normal or apoptotic nuclear morphology (Hoechst dye staining). […]

[3] = system: PC12 rat pheochromocytoma cells; experiment: Thapsigargin-induced death of PC12 cells (undifferentiated and differentiated), ATP content assay; type: cell-based; conditions: differentiated (20 ng/ml NGF, five days), thapsigargin 15 μM
Description: In addition to CSM14.1 cells, when tested at 25 μM, Compound 5962123 protected by >50% against thapsigargin-induced death of several tumor cell lines (HeLa human cervical cancer, SW1 melanoma cell, PPC1, human prostate cancer), mouse neural stem cell C17.2 (both differentiated [neuronal phenotype] and non-differentiated [stem cell phenotype]) as determined by ATP content assay, and primary rat cortical neurons as determined by microscopy assay measuring the percentage of NeuN-immunopositive cells with either normal or apoptotic nuclear morphology (Hoechst dye staining).
For PC12, cells were stimulated with 20 ng/ml NGF for five days; for C17.2, cells were stimulated with serum reduction, and 1% N2 incubation for three days; for CSM14.1, cells were cultured at 39° C. for 5-7 days.

CCN(CC)c1ccc(C2Nc3ccccc3NC3=C2C(=O)CC(c2ccccc2)C3)cc1 (centres unmarked) [Compound 5962123, 6-(4-diethylaminophenyl)-9-phenyl-5,6,8,9,10,11-hexahydrobenzo[c][1,5]benzodiazepin-7-one]
−: Cytoprotective activity, stimulus Staurosporine (Result) ([1]; readout ATP & Annexin) | Cytoprotective activity, stimulus TNFα + CHX (Result) ([1]; readout ATP & Annexin) | Cytoprotective activity, stimulus VP-16 (Result) ([1]; readout Annexin) | Cytoprotective activity, Jurkat (Result) [2] | Cytoprotective activity, PC12 diff (Result) [3]
